According to publication PMC4370480:
These are yes or no findings as the source states them, for the method shown. In cells and extracts the contact can be indirect. Some entries that bind do so weakly or less than the wild type.

Sequences of proteins named here, by UniProt entry; tags and fusion partners are left off. A change or cut given only in a name is not applied to a line headed by its entry.
UniProt P13569: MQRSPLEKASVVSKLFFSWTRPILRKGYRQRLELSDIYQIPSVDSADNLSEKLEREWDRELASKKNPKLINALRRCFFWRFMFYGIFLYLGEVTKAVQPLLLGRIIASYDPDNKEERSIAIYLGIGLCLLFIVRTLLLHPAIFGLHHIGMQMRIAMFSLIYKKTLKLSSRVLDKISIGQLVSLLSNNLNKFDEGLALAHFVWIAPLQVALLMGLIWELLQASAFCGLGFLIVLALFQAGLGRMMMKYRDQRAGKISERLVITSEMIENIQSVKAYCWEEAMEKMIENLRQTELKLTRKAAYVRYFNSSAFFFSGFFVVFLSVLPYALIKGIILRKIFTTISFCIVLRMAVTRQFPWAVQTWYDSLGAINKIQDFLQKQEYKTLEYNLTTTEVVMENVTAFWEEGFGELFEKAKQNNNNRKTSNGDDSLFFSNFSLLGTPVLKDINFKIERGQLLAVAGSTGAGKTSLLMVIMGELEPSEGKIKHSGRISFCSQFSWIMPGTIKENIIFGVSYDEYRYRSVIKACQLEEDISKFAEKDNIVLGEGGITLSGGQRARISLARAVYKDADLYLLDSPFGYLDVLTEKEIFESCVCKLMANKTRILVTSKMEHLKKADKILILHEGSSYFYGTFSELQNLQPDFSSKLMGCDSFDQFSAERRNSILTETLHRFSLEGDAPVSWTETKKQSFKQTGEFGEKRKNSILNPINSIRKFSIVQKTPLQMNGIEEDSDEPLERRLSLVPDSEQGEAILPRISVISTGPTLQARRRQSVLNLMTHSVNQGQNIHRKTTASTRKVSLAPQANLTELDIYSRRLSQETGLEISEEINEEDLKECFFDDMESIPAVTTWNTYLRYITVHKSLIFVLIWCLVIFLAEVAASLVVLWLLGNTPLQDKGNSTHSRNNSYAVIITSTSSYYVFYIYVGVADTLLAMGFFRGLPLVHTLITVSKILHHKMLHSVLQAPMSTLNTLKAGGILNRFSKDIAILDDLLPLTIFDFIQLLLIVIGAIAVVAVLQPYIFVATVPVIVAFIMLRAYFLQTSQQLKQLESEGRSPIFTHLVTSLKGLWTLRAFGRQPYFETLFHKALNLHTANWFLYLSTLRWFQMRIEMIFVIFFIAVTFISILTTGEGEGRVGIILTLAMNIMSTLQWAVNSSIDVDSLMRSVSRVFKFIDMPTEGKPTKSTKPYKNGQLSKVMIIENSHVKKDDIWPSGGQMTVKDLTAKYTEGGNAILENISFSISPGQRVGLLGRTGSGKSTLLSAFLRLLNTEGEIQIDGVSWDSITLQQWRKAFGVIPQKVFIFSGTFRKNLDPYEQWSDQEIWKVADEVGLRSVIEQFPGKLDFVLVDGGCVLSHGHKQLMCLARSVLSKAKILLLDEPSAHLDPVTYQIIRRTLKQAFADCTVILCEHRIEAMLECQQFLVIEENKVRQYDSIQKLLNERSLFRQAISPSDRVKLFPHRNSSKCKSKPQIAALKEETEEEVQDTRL
UniProt P04792: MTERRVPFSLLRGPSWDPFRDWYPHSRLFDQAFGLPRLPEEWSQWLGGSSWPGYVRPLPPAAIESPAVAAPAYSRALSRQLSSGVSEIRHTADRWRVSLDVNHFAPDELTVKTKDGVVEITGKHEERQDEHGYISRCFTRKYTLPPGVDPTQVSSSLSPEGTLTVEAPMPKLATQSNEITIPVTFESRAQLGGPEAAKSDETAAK
UniProt Q9UBN7: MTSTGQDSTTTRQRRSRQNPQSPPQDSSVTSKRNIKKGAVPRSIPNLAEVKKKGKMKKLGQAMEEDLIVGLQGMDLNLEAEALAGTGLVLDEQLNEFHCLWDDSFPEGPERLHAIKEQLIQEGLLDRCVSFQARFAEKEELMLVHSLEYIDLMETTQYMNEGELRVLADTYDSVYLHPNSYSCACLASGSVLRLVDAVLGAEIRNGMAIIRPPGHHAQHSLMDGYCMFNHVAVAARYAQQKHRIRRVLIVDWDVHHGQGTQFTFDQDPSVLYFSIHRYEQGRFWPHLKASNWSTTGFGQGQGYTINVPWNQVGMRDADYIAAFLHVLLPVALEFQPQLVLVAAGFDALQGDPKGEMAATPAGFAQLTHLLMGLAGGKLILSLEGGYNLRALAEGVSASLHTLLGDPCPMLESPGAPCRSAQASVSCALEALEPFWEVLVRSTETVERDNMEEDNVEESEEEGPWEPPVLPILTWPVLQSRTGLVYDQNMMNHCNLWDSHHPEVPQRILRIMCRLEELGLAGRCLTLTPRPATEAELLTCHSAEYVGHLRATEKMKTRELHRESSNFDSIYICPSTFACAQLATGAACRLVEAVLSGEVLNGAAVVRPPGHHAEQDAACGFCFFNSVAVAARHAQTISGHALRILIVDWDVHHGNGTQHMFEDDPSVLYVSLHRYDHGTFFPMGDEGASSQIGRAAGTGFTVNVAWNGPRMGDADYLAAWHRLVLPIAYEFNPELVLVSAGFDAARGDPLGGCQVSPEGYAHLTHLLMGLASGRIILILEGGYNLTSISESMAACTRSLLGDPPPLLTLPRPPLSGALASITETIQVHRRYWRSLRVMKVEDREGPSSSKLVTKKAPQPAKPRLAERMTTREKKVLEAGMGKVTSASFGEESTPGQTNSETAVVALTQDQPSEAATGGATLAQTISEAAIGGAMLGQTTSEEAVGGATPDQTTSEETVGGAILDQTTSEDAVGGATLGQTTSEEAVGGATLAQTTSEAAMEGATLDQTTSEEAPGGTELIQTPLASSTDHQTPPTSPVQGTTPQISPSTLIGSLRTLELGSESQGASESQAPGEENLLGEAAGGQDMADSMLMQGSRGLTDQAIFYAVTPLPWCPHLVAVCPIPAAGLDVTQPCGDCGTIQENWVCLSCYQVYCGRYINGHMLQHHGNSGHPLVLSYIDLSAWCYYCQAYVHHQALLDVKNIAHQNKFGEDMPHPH

Tests used:
[1] = molecular target: N1303K CFTR (cystic fibrosis transmembrane conductance regulator, NBD2 mutant N1303K) (UniProt P13569); experiment: co-IP; CFTR mutant immunoprecipitated with anti-CFTR antibody M3A7 and protein A/G-agarose beads from 2000 ug lysate of HEK 293 stable cell lines (50 mM NaCl, 150 mM Tris-HCl pH 7.4, 1% Nonidet P-40), 4 h at 4°C; blotted for each partner; cells untreated or treated with correctors C3+C4 (5 uM, 16 h), which reduced the binding
[2] = molecular target: S1235R CFTR (cystic fibrosis transmembrane conductance regulator, NBD2 mutant S1235R) (UniProt P13569); experiment: as above

Row | Substance | binding [1] | binding [2]
1 | heat shock protein 27 (from UniProt P04792 1-205) | binds | binds
2 | VCP protein (from UniProt P55072 1-806) | binds | binds
3 | HDAC6 (from UniProt Q9UBN7 1-1215) | binds | binds
